This data set is described as follows: general procedure: solution-phase peptide synthesis; HATU.
The mark [1] stands for this setting: coupling step, HPLC (Protocol A).
Setting [2] is: late stage modification step, HPLC (Protocol A).

For the substance “methyl N-{(2R,3R)-3-[(2S)-1-{(3R,4S,5S)-4-[(N-{[(3R)-3-fluoropyrrolidin-3-yl]carbonyl}-L-valyl)(methyl)amino]-3-methoxy-5-methylheptanoyl}pyrrolidin-2-yl]-3-methoxy-2-methylpropanoyl}-L-phenylalaninate, trifluoroacetic acid salt [#173]”, the step yield (late stage modification step, run 1) was determined as 45%.

On to “1,2-dimethyl-L-prolyl-N-[(3R,4S,5S)-3-methoxy-1-{(2S)-2-[(1R,2R)-1-methoxy-2-methyl-3-oxo-3-(pentafluorophenoxy)propyl]pyrrolidin-1-yl}-5-methyl-1-oxoheptan-4-yl]-N-methyl-L-valinamide”, for which the step yield (late stage modification step) is 97%.

Consider “2-methylalanyl-N-[(3R,4S,5S)-1-{(2S)-2-[(1R,2R)-3-{[(2S)-1-tert-butoxy-1-oxo-3-phenylpropan-2-yl]amino}-1-methoxy-2-methyl-3-oxopropyl]pyrrolidin-1-yl}-3-methoxy-5-methyl-1-oxoheptan-4-yl]-N-methyl-L-valinamide”, for which the step yield (late stage modification step) stood at 99%.

For “1,2-dimethyl-D-prolyl-N-[(3R,4S,5S)-1-{(2S)-2-[(1R,2R)-3-{[(2S)-3-(4-aminophenyl)-1-methoxy-1-oxopropan-2-yl]amino}-1-methoxy-2-methyl-3-oxopropyl]pyrrolidin-1-yl}-3-methoxy-5-methyl-1-oxoheptan-4-yl]-N-methyl-L-valinamide”, under “coupling step”, the step yield came out at 56%. Also, the “final HPLC purity” value under setting [1] is on record as 100%.

In turn, “1,2-dimethyl-L-prolyl-N-{(1S,2R)-4-{(2S)-2-[(1R,2R)-3-{[(1S)-1-carboxy-2-phenylethyl]amino}-1-methoxy-2-methyl-3-oxopropyl]pyrrolidin-1-yl}-2-methoxy-1-[(1S)-1-methylpropyl]-4-oxobutyl}-N-methyl-L-valinamide” registered a step yield (coupling step) of 69%. For the same substance, under setting [1], the “final HPLC purity” value is recorded as over 98%.

“N-methyl-L-valyl-N-[(3R,4S,5S)-3-methoxy-1-{(2S)-2-[(1R,2R)-1-methoxy-3-{[(2S)-1-methoxy-1-oxo-3-phenylpropan-2-yl]amino}-2-methyl-3-thioxopropyl]pyrrolidin-1-yl}-5-methyl-1-oxoheptan-4-yl]-N-methyl-L-valinamide” registered a step yield (late stage modification step) of 80%. Besides, the “final HPLC purity” value under setting [2] is over 95%.

As for “N˜2˜-[2,2-dimethyl-3-(methylamino)propanoyl]-N-{(1S,2R)-2-methoxy-4-{(2S)-2-[(1R,2R)-1-methoxy-2-methyl-3-oxo-3-{[(1S)-2-phenyl-1-(1,3-thiazol-2-yl)ethyl]amino}propyl]pyrrolidin-1-yl}-1-[(1S)-1-methylpropyl]-4-oxobutyl}-N-methyl-L-valinamide”, the step yield (coupling step, TFA salt) turned out to be 41%.

For the setting “late stage modification step”, “N,2-dimethylalanyl-N-[(3R,4S,5S)-3-methoxy-1-{(2S)-2-[(1R,2R)-1-methoxy-2-methyl-3-{[(1S)-2-phenyl-1-(1,3-thiazol-2-yl)ethyl]amino}-3-thioxopropyl]pyrrolidin-1-yl}-5-methyl-1-oxoheptan-4-yl]-N-methyl-L-valinamide” registered a step yield of 95%.

“N^2-[(1-{[(9H -fluoren-9-ylmethoxy)carbonyl]amino}cyclopentyl)carbonyl]-N-[(3R,4S,5S)-3-methoxy-1-{(2S)-2-[(1R,2R)-1-methoxy-2-methyl-3-{[(1S)-2-phenyl-1-(1,3-thiazol-2-yl)ethyl]amino}-3-thioxopropyl]pyrrolidin-1-yl}-5-methyl-1-oxoheptan-4-yl]” displayed a step yield (coupling step) of 67%.

In turn, “N-{(2R,3R)-3-[(2S)-1-{(3R,4S,5S)-4-[(N-{[(3R)-3-fluoropyrrolidin-3-yl]carbonyl}-L-valyl)(methyl)amino]-3-methoxy-5-methylheptanoyl}pyrrolidin-2-yl]-3-methoxy-2-methylpropanoyl}-L-phenylalanine, trifluoroacetic acid salt” showed a step yield (late stage modification step, over two steps) of 86% over two steps.

On to “2-methylalanyl-N-[(3R,4S,5S)-1-{(2S)-2-[(1R,2R)-3-{[bicyclo[4.2.0]octa-1,3,5-trien-7-yl(carboxy)methyl]amino}-1-methoxy-2-methyl-3-oxopropyl]pyrrolidin-1-yl}-3-methoxy-5-methyl-1-oxoheptan-4-yl]-N-methyl-L-valinamide”, for which the step yield (late stage modification step) is reported as 57%.

In turn, “N-methyl-L-valyl-N-{(3R,4S,5S)-3-methoxy-1-[(2S)-2-{(1R,2R)-1-methoxy-2-methyl-3-[(2-phenylethyl)amino]-3-thioxopropyl}pyrrolidin-1-yl]-5-methyl-1-oxoheptan-4-yl}-N-methyl-L-valinamide” had a step yield (late stage modification step) of 88%.

As to “N-[(9H-fluoren-9-ylmethoxy)carbonyl]-2-methylalanyl-N-[(3R,4S,5S)-1-{(2S)-2-[(1R,2R)-3-{[2-(cyclohepta-2,4,6-trien-1-yl)ethyl]amino}-1-methoxy-2-methyl-3-oxopropyl]pyrrolidin-1-yl}-3-methoxy-5-methyl-1-oxoheptan-4-yl]-N-methyl-L-valinamide”, where the note is “coupling step”, the step yield amounted to 65%.

Turning to “N-methyl-L-valyl-N-[(3R,4S,5S)-3-methoxy-1-{(2S)-2-[(1R,2R)-1-methoxy-2-methyl-3-{[(1S)-2-phenyl-1-(1,3-thiazol-2-yl)ethyl]amino}-3-thioxopropyl]pyrrolidin-1-yl}-5-methyl-1-oxoheptan-4-yl]-N-methyl-L-valinamide”, the step yield (late stage modification step) worked out at 92%. Also, the “final HPLC purity” value under setting [2] was over 97%.

For “N-{(2R,3R)-3-methoxy-3-[(2S)-1-{(3R,4S,5S)-3-methoxy-5-methyl-4-[methyl(L-valyl)amino]heptanoyl}pyrrolidin-2-yl]-2-methylpropanoyl}-L-phenylalanine”, the step yield (late stage modification step) came out at 94%.

The substance “N,2-dimethylalanyl-N-[(3R,4S,5S)-3-methoxy-1-{(2S)-2-[(1R,2R)-1-methoxy-3-{[(2S)-1-methoxy-1-oxo-3-phenylpropan-2-yl]amino}-2-methyl-3-thioxopropyl]pyrrolidin-1-yl}-5-methyl-1-oxoheptan-4-yl]-N-methyl-L-valinamide” yielded a step yield (late stage modification step) of 85%.

In the case of “methyl N-{(2R,3R)-3-[(2S)-1-{(3R,4S,5S)-4-[{N-[2,2-dimethyl-3-(methylamino)propanoyl]-L-valyl}(methyl)amino]-3-methoxy-5-methylheptanoyl}pyrrolidin-2-yl]-3-methoxy-2-methylpropanoyl}-L-phenylalaninate, trifluoroacetic acid salt”, where the note is “coupling step, TFA salt”, the step yield worked out at 17%.

As for “1,2-dimethyl-D-prolyl-N-[(3R,4S,5S)-1-{(2S)-2-[(1R,2R)-2-carboxy-1-methoxypropyl]pyrrolidin-1-yl}-3-methoxy-5-methyl-1-oxoheptan-4-yl]-N-methyl-L-valinamide, trifluoroacetic acid salt”, the step yield (coupling step) amounted to 57.5%. In addition, the “final HPLC purity” value (coupling step, HPLC Protocol X) is 98%.

On to “1,2-dimethyl-L-prolyl-N-[(3R,4S,5S)-1-{(2S)-2-[(1R,2R)-2-carboxy-1-methoxypropyl]pyrrolidin-1-yl}-3-methoxy-5-methyl-1-oxoheptan-4-yl]-N-methyl-L-valinamide”, for which, where the note is “coupling step”, the step yield came to 33%. For the same substance, the “final HPLC purity” value under setting [1] is listed as over 97%.

As for “1,2-dimethyl-D-prolyl-N-[(3R,4S,5S)-1-{(2S)-2-[(1R,2R)-3-({(2S)-3-[4-({N-[6-(2,5-dioxo-2,5-dihydro-1H-pyrrol-1-yl)hexanoyl]glycyl}amino)phenyl]-1-methoxy-1-oxopropan-2-yl}amino)-1-methoxy-2-methyl-3-oxopropyl]pyrrolidin-1-yl}-3-methoxy-5-methyl-1-oxoheptan-4-yl]-N-methyl-L-valinamide”, the step yield (coupling step) is 16.2%. Also, the “final HPLC purity” value under setting [1] is given as 96%.

Take “(2S)—N-[(2S)-1-{[(3R,4S,5S)-3-methoxy-1-{(2S)-2-[(1R,2R)-1-methoxy-2-methyl-3-oxo-3-{[(1S)-2-phenyl-1-(1,3-thiazol-2-yl)ethyl]amino}propyl]pyrrolidin-1-yl}-5-methyl-1-oxoheptan-4-yl](methyl)amino}-3-methyl-1-oxobutan-2-yl]”: the step yield (late stage modification step) is 61%. The “final HPLC purity” value (late stage modification step, HPLC Protocol T) is recorded as 96%.

In turn, “N^2-[(1-aminocyclopropyl)carbonyl]-N-[(3R,4S,5S)-3-methoxy-1-{(2S)-2-[(1R,2R)-1-methoxy-2-methyl-3-oxo-3-{[(1S)-2-phenyl-1-(1,3-thiazol-2-yl)ethyl]amino}propyl]pyrrolidin-1-yl}-5-methyl-1-oxoheptan-4-yl]-N-methyl-L-valinamide” displayed a step yield (coupling step) of 34%.

Consider “L-isovalyl-N-{(1S,2R)-4-{(2S)-2-[(1R,2R)-3-{[(1S)-1-benzyl-2-methoxy-2-oxoethyl]amino}-1-methoxy-2-methyl-3-oxopropyl]pyrrolidin-1-yl}-2-methoxy-1-[(1S)-1-methylpropyl]-4-oxobutyl}-N-methyl-L-valinamide”, for which the step yield (coupling step) is recorded as 35%.

As to “N,2-dimethylalanyl-N-[(3R,4S,5S)-1-{(2S)-2-[(1R,2R)-3-{[(2S)-1-tert-butoxy-1-oxo-3-phenylpropan-2-yl]amino}-1-methoxy-2-methyl-3-oxopropyl]pyrrolidin-1-yl}-3-methoxy-5-methyl-1-oxoheptan-4-yl]-N-methyl-L-valinamide”, under “late stage modification step”, the step yield amounted to 81%. Moreover, the “final HPLC purity” value under setting [2] is on record as over 98%.

With “methyl N-{(2R,3R)-3-methoxy-3-[(2S)-1-{(3R,4S,5S)-3-methoxy-5-methyl-4-[methyl(N-{[(2R)-2-methylpiperidin-2-yl]carbonyl}-L-valyl)amino]heptanoyl}pyrrolidin-2-yl]-2-methylpropanoyl}-L-phenylalaninate, trifluoroacetic acid salt”, the “final HPLC purity” value (coupling step, HPLC (Protocol A), TFA salt) amounted to 89%. Besides, the step yield (coupling step, TFA salt) was 33%.

For the substance “N,2-dimethylalanyl-N-[(3R,4S,5S)-1-{(2S)-2-[(1R,2R)-3-{[(1S)-1-carboxy-2-phenylethyl]amino}-1-methoxy-2-methyl-3-thioxopropyl]pyrrolidin-1-yl}-3-methoxy-5-methyl-1-oxoheptan-4-yl]-N-methyl-L-valinamide, trifluoroacetic acid salt”, the “final HPLC purity” value (late stage modification step, HPLC Protocol A at 45° C, trifluoroacetic acid salt) was “purity >96%”. Moreover, the step yield (late stage modification step, trifluoroacetic acid salt) was found to be 58%.

For the origin of these results see patent US8828401B2 (Pfizer Inc., priority 2011, dated 2014).
